Measured values reported in the supplement of paper PMC10849652.
The other results are listed elsewhere or left out.

Sequences of proteins named here, by UniProt entry; tags and fusion partners are left off. A change or cut given only in a name is not applied to a line headed by its entry.
UniProt Q5T8P6: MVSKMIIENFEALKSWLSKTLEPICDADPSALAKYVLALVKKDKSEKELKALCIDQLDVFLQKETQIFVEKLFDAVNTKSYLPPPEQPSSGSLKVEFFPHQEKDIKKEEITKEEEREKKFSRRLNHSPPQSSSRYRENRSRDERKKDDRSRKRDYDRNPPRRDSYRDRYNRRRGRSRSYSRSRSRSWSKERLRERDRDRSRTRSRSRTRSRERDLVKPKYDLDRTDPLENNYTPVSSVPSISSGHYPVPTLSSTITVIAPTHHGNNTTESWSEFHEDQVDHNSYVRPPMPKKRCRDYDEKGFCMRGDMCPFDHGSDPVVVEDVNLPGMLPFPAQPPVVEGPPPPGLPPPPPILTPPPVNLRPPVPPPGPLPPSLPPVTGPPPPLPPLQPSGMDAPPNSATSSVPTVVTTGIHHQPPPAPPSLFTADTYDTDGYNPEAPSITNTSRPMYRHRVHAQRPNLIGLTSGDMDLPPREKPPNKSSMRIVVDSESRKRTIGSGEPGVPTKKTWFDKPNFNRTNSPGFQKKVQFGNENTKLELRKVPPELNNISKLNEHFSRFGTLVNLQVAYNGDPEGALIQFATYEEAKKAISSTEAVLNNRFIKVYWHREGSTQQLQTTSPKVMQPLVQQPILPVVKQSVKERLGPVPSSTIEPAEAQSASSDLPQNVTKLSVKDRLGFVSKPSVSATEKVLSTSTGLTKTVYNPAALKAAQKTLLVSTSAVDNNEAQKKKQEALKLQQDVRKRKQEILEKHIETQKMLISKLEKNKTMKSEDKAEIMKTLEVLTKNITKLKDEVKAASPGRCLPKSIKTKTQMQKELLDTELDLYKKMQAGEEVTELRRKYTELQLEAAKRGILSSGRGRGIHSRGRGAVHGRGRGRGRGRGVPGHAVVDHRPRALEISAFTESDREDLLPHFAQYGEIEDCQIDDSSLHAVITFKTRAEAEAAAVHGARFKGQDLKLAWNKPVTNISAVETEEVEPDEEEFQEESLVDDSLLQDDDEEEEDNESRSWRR
UniProt Q9P2R6: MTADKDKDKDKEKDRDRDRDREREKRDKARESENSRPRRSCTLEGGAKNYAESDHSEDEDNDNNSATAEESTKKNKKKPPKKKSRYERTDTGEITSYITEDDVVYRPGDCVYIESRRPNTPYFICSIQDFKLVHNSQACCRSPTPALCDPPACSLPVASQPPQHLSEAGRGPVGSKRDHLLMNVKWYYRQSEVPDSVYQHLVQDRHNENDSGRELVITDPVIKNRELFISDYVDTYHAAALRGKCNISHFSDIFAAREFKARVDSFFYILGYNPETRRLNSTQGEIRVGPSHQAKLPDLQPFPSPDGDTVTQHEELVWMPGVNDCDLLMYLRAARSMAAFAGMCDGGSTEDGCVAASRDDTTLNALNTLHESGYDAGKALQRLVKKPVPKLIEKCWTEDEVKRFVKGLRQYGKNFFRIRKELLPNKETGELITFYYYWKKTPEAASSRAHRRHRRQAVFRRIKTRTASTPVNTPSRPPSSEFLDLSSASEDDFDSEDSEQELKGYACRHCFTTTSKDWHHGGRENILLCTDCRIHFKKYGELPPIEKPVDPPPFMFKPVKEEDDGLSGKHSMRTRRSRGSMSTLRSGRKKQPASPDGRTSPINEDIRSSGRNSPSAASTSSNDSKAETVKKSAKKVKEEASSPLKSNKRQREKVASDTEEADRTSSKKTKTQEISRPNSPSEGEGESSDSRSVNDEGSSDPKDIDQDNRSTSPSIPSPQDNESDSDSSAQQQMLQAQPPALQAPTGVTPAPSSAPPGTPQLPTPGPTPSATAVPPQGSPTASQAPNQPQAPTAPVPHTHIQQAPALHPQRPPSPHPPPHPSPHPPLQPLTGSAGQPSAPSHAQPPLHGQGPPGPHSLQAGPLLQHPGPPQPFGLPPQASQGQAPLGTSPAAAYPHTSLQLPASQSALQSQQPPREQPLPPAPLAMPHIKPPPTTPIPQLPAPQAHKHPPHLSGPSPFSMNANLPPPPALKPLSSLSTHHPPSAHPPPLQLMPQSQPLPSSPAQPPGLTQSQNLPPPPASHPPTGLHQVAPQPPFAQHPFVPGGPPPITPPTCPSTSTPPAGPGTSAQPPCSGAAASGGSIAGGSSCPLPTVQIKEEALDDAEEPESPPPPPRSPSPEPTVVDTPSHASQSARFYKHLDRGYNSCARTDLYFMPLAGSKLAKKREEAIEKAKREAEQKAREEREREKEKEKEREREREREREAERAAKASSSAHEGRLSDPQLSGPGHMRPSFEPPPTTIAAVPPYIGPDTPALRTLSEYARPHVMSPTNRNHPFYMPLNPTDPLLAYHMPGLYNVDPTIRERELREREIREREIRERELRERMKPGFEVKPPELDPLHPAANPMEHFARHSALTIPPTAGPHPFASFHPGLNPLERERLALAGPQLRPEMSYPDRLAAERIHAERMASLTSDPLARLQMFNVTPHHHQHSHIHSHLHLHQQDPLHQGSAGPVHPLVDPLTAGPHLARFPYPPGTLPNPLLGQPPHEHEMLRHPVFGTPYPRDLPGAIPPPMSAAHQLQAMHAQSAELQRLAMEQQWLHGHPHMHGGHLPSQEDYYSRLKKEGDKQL
UniProt P82980: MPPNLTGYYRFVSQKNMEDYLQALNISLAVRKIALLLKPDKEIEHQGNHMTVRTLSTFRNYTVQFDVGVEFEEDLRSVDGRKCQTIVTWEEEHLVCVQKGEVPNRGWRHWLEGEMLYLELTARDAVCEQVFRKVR
UniProt P35249, whole entry, looked up: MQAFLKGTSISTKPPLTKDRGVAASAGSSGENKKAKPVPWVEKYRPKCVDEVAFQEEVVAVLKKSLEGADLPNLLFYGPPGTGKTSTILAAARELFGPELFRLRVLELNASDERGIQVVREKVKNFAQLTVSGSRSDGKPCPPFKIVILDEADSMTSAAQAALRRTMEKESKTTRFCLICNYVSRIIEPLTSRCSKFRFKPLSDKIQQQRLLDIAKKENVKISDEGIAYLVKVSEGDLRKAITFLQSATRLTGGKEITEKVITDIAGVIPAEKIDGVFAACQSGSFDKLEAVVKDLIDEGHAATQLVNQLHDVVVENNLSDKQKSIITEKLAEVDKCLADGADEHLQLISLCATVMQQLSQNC
UniProt P48382: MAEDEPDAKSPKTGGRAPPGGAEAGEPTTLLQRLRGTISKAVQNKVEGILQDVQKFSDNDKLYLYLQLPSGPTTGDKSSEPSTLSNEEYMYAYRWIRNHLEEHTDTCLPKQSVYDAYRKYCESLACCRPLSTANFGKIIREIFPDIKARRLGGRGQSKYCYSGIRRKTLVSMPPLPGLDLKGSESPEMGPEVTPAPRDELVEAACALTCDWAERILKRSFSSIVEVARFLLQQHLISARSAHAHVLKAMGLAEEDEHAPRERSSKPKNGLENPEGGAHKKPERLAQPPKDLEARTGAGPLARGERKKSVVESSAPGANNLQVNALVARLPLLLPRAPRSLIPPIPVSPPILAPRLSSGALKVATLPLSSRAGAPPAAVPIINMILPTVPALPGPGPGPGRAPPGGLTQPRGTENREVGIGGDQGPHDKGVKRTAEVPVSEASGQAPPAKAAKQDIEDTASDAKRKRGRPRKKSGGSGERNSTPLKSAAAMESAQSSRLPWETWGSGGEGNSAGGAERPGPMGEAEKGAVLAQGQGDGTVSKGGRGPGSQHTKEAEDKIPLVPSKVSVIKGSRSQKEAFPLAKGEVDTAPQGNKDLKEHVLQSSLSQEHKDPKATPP
UniProt Q2KHR2: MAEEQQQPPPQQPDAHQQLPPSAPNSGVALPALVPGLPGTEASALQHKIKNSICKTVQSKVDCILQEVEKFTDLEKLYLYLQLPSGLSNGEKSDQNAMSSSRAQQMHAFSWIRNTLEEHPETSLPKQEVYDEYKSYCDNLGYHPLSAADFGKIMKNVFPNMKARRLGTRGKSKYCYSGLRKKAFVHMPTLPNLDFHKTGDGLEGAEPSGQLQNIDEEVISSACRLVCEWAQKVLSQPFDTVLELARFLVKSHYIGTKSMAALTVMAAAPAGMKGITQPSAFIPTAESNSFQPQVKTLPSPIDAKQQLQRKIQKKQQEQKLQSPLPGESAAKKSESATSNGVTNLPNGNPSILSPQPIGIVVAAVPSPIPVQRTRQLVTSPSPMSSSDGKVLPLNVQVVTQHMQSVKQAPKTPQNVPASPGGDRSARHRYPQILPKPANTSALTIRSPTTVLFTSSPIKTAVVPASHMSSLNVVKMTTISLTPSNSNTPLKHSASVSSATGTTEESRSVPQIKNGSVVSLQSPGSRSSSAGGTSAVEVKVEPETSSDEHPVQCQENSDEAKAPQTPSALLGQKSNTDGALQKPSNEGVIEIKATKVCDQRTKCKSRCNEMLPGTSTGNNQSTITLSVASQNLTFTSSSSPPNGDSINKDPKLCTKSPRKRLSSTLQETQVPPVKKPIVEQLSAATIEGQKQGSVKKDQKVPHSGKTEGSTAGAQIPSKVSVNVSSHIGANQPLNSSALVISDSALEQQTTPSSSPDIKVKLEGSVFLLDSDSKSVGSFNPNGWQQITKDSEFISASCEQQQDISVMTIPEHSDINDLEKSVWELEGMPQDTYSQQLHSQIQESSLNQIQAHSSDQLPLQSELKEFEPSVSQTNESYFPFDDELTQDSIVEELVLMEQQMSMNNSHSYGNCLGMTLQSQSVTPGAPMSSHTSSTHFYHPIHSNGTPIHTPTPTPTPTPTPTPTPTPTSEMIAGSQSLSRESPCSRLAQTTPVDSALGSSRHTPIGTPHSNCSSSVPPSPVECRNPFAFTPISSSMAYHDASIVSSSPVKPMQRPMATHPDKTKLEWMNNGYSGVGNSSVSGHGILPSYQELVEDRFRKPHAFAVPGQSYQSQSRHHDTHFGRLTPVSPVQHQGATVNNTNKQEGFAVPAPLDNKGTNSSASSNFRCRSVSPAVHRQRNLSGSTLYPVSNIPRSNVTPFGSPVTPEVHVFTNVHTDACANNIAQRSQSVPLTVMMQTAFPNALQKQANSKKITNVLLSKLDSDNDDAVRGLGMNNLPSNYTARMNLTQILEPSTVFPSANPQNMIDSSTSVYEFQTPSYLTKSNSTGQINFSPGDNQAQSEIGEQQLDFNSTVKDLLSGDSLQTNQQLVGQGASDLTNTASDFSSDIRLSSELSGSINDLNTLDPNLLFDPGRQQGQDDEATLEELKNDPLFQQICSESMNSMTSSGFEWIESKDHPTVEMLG
UniProt Q9H1K0: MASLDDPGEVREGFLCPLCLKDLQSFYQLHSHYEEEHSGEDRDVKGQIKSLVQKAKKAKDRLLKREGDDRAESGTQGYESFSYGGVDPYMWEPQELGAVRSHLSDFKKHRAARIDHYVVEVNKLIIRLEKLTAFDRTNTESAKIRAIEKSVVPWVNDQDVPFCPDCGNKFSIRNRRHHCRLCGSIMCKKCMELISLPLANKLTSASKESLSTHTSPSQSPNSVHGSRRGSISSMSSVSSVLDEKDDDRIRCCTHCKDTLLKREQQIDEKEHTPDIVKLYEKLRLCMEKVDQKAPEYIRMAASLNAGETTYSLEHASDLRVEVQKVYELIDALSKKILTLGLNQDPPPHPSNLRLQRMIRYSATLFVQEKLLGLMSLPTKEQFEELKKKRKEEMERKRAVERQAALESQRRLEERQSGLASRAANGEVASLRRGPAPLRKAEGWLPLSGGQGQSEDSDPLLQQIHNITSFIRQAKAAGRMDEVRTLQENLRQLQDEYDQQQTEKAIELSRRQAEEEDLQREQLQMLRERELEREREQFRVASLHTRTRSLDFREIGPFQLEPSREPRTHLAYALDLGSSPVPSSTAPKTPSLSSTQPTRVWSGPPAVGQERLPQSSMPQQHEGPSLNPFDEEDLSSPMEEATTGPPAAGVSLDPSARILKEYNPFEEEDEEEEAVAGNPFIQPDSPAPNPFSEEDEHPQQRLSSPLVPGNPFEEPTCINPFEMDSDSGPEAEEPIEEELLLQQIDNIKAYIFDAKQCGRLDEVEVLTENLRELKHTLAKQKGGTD
UniProt Q96PK6: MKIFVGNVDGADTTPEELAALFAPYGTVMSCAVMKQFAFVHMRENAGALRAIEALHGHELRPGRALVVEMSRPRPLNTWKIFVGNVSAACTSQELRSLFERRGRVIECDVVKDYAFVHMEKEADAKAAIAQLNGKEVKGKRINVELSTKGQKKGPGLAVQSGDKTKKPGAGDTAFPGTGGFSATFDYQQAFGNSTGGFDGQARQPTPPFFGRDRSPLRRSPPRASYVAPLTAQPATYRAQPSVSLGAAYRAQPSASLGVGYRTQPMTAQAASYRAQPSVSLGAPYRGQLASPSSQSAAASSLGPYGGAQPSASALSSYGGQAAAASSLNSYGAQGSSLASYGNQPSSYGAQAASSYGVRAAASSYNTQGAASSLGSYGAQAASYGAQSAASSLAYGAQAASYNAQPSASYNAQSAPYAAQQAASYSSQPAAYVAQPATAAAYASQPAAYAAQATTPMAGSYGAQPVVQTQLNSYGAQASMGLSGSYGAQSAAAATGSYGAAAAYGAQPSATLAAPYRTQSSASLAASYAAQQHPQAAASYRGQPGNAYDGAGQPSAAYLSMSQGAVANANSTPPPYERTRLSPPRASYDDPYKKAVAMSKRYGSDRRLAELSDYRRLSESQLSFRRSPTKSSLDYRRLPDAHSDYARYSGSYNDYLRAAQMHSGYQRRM

Key:
Assay in all cases: log2 fold change, soluble protein after heating vs DMSO (PISA); higher = thermal stabilisation; K562 lysate, 10 uM; active = over 0.2 and 3.5 SD of the protein, either way, in both replicates (recomputed)
[1] = compound: Cc1cn(-c2cc(NC(=O)c3ccc(C)c(Nc4nccc(-c5cccnc5)n4)c3)cc(C(F)(F)F)c2)cn1 [nilotinib]
In short: (§1)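 Quantification was by TMTpro 16plex LC-MS/MS with equalised channel sums, applied to the supernatant after 21,000xg for 90 min. Samples were crude K562 extract at 1 mg/mL protein in PBS pH 7.4 with 1 mM MgCl2, treated with 10 μM compound for 30 min, heated for 3 min across 48°C-58°C, pooled and brought to 0.5% NP-40 at 4°C. Values are log-two fold changes in thermal stability relative to solvent controls, from duplicates.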

[2] = compound: Cc1nc(Nc2n[nH]c3c2CN(C(=O)N[C@H](CN(C)C)c2ccccc2)C3(C)C)c2sccc2n1
In short: as §1

[3] = compound: Cc1nc(Nc2ncc(C(=O)Nc3c(C)cccc3Cl)s2)cc(N2CCN(CCO)CC2)n1 [dasatinib]
In short: as §1

[4] = compound: Cc1ncc(-c2ccnc(Nc3ccc(S(C)(=O)=O)cc3)n2)n1C(C)C
In short: as §1

[5] = compound: Cn1cc(-c2ccc3c(c2)CCN3C(=O)Cc2cccc(C(F)(F)F)c2)c2c(N)ncnc21
In short: as §1

[6] = compound: Cn1cc(CNCC2CCN(c3ncc(C(=O)NO)cn3)CC2)c2ccccc21 [quisinostat]
In short: as §1

[7] = compound: Cn1cncc1[C@@](N)(c1ccc(Cl)cc1)c1ccc2c(c1)c(-c1cccc(Cl)c1)cc(=O)n2C [tipifarnib]
In short: as §1

[8] = compound: NC(=O)Nc1cc(-c2cccc(F)c2)sc1C(=O)N[C@H]1CCCNC1
In short: as §1

[9] = compound: NC(=O)c1cnc(N[C@@H]2CCCC[C@@H]2N)nc1Nc1cccc(-n2nccn2)c1
In short: as §1

[10] = compound: NC1(c2ccc(-c3nc4ccn5c(=O)[nH]nc5c4cc3-c3ccccc3)cc2)CCC1
In short: as §1

Measured: log2 fold change

RBM27 (UniProt Q9P2N5)
inactive: [1] -0.022 | [2] 0.007 | [3] -0.035 | [4] 0.03 | [5] 0.035 | [6] 0.045 | [7] -0.015 | [8] -0.077 | [9] -0.008 | [10] 0.047

REV3L (UniProt O60673)
inactive: [1] -0.126 | [2] -0.013 | [3] -0.133 | [4] 0.026 | [5] -0.039 | [6] -0.422 | [7] -0.251 | [8] -0.042 | [9] 0.14 | [10] -0.064

RCHY1 (UniProt Q96PM5)
inactive: [1] 0.046 | [2] 0.109 | [3] -0.07 | [4] 0.149 | [5] -0.121 | [6] 0.063 | [7] 0.053 | [8] -0.075 | [9] -0.063 | [10] -0.034

RDX (UniProt P35241)
inactive: [1] -0.003 | [2] -0.006 | [3] 0.037 | [4] 0.048 | [5] -0.008 | [6] 0.047 | [7] 0.013 | [8] -0.007 | [9] 0.002 | [10] 0.006

RBM26 isoform 3 (UniProt Q5T8P6)
inactive: [1] 0.068 | [2] -0.004 | [3] -0.032 | [4] 0.17 | [5] -0.173 | [6] -0.06 | [7] 0.077 | [8] -0.019 | [9] -0.132 | [10] 0.111

RELCH isoform 2 (UniProt Q9P260)
inactive: [1] 0.014 | [2] -0.038 | [3] -0.1 | [4] -0.011 | [5] -0.007 | [6] -0.004 | [7] -0.031 | [8] -0.007 | [9] 0.02 | [10] -0.001

RERE (UniProt Q9P2R6)
inactive: [1] -0.065 | [2] 0.06 | [3] -0.064 | [4] 0.041 | [5] 0.009 | [6] -0.041 | [7] 0.001 | [8] 0.07 | [9] 0.026 | [10] 0.067

RBP5 (UniProt P82980)
inactive: [1] 0.054 | [2] 0.134 | [3] 0.028 | [4] 0.014 | [5] -0.02 | [6] -0.058 | [7] -0.095 | [8] -0.022 | [9] -0.043 | [10] -0.015

RFC4 (UniProt P35249)
inactive: [1] 0.001 | [2] -0.029 | [3] -0.068 | [4] -0.002 | [5] 0.047 | [6] -0.016 | [7] -0.004 | [8] 0.03 | [9] 0.015 | [10] -0.011

RAPGEF6 isoform 4 (UniProt Q8TEU7)
inactive: [1] -0.018 | [2] -0.022 | [3] -0.018 | [4] -0.075 | [5] 0.031 | [6] -0.037 | [7] -0.08 | [8] 0.01 | [9] 0.058 | [10] -0.008

RFXAP (UniProt O00287)
inactive: [1] -0.028 | [2] 0.133 | [3] -0.008 | [4] -0.022 | [5] 0.021 | [6] -0.034 | [7] -0.113 | [8] -0.043 | [9] 0.029 | [10] 0.035

RDH14 (UniProt Q9HBH5)
inactive: [1] 0.008 | [2] -0.006 | [3] 0.023 | [4] 0.004 | [5] 0.009 | [6] -0.016 | [7] 0.065 | [8] -0.011 | [9] -0.077 | [10] 0.048

RGS10 (UniProt O43665)
inactive: [1] 0.067 | [2] -0.015 | [3] 0.037 | [4] 0.002 | [5] 0.001 | [6] -0.005 | [7] 0.038 | [8] 0.013 | [9] -0.026 | [10] 0.009

RBM25 (UniProt P49756)
inactive: [1] -0.009 | [2] 0.019 | [3] -0.106 | [4] -0.054 | [5] -0.009 | [6] -0.076 | [7] -0.043 | [8] 0.03 | [9] 0.015 | [10] 0.09

RFX5 (UniProt P48382)
inactive: [1] -0.029 | [2] -0.043 | [3] -0.084 | [4] -0.023 | [5] -0.007 | [6] -0.016 | [7] -0.008 | [8] 0.019 | [9] -0.004 | [10] 0.016

RFESD isoform 2 (UniProt Q8TAC1)
inactive: [1] 0.015 | [2] -0.001 | [3] -0.019 | [4] 0.035 | [5] 0.031 | [6] 0.024 | [7] -0.016 | [8] 0.003 | [9] -0.004 | [10] 0

RCL1 (UniProt Q9Y2P8)
inactive: [1] -0.025 | [2] -0.04 | [3] -0.072 | [4] -0.012 | [5] 0.06 | [6] -0.021 | [7] -0.021 | [8] -0.069 | [9] -0.004 | [10] 0.039

RFX1 (UniProt P22670)
inactive: [1] 0.008 | [2] -0.032 | [3] -0.014 | [4] 0.022 | [5] 0.054 | [6] -0.026 | [7] 0.031 | [8] 0.015 | [9] -0.032 | [10] 0.001

RBPJ (UniProt Q06330)
inactive: [1] 0.009 | [2] -0.037 | [3] 0.019 | [4] 0.016 | [5] 0 | [6] -0.075 | [7] 0.052 | [8] -0.015 | [9] -0.014 | [10] -0.003

Taken from above (2 entries):
RCL1 (UniProt Q9Y2P8)
inactive: [1] -0.025 | [2] -0.04 | [3] -0.072 | [4] -0.012 | [5] 0.06 | [6] -0.021 | [7] -0.021 | [8] -0.069 | [9] -0.004 | [10] 0.039

RFX1 (UniProt P22670)
inactive: [1] 0.008 | [2] -0.032 | [3] -0.014 | [4] 0.022 | [5] 0.054 | [6] -0.026 | [7] 0.031 | [8] 0.015 | [9] -0.032 | [10] 0.001

(listing goes on)

RFFL (UniProt Q8WZ73)
inactive: [1] 0.116 | [2] 0.143 | [3] 0.037 | [4] -0.063 | [5] 0.028 | [6] -0.069 | [7] 0.036 | [8] 0.022 | [9] -0.065 | [10] 0.004

RENBP (UniProt P51606)
inactive: [1] -0.023 | [2] 0.023 | [3] 0.077 | [4] -0.002 | [5] 0.004 | [6] 0.023 | [7] -0.006 | [8] 0.017 | [9] -0.008 | [10] 0.04

RBM4 (UniProt Q9BWF3)
inactive: [1] -0.086 | [2] -0.011 | [3] 0.032 | [4] 0.029 | [5] 0.03 | [6] 0.033 | [7] -0.067 | [8] 0.034 | [9] 0.046 | [10] 0.029

RBM33 (UniProt Q96EV2)
inactive: [1] 0.016 | [2] -0.03 | [3] -0.035 | [4] -0.03 | [5] 0.023 | [6] -0.061 | [7] 0.08 | [8] -0.003 | [9] -0.041 | [10] 0.041

RFX7 (UniProt Q2KHR2)
inactive: [1] 0.084 | [2] 0.074 | [3] 0.157 | [4] -0.009 | [5] 0.012 | [6] -0.027 | [7] -0.174 | [8] 0.001 | [9] 0.047 | [10] -0.038

RCC2 (UniProt Q9P258)
inactive: [1] 0.015 | [2] -0.006 | [3] -0.006 | [4] -0.014 | [5] -0.017 | [6] 0.022 | [7] 0.013 | [8] -0.003 | [9] -0.01 | [10] 0.04

REV1 (UniProt Q9UBZ9)
inactive: [1] 0.012 | [2] 0.043 | [3] 0.05 | [4] -0.038 | [5] -0.001 | [6] 0.038 | [7] -0.031 | [8] -0.057 | [9] -0.005 | [10] 0.03

RCE1 (UniProt Q9Y256)
inactive: [1] 0.136 | [2] -0.15 | [3] 0.072 | [4] 0.15 | [5] 0.001 | [6] -0.115 | [7] 0.033 | [8] 0.019 | [9] -0.122 | [10] 0.068

RBSN (UniProt Q9H1K0)
inactive: [1] -0.047 | [2] 0.057 | [3] -0.106 | [4] 0.034 | [5] -0.004 | [6] -0.04 | [7] -0.036 | [8] 0.05 | [9] 0.039 | [10] 0.029

RARS2 (UniProt Q5T160)
inactive: [1] -0.055 | [2] -0.012 | [3] 0.002 | [4] -0.005 | [5] 0.014 | [6] -0.066 | [7] -0.022 | [8] 0.086 | [9] 0.02 | [10] -0.111

RBM14 (UniProt Q96PK6)
inactive: [1] -0.013 | [2] 0.019 | [3] -0.001 | [4] -0.003 | [5] 0.058 | [6] 0.03 | [7] -0.012 | [8] -0.035 | [9] -0.016 | [10] 0.038
